Some compounds share one wording; it may come from a single statement.
Test: Bottom-gate top-contact field-effect transistors, semiconductor thermally evaporated in high vacuum (Example 14)
Settings: for transistor characteristics (type): OFET of example 14; for μ (charge-carrier mobility): OFET of example 14, saturation regime, thermally evaporated; for μ (charge-carrier mobility) / Vth (threshold voltage) / Ion/off: ambient air; for Vth (threshold voltage) / Ion/off: OFET of example 14, thermally evaporated; for Vth (threshold voltage): Al2O3 dielectric

SMILES | transistor characteristics (type) | μ (charge-carrier mobility) | Vth (threshold voltage) | Ion/off
CC(C)(C)OC(=O)n1c2c(c3c1=Nc1ccccc1S3)Sc1ccccc1N=2 [Compound 1a] | typical p-type characteristics | 0.13 cm^2/Vs | −6.9 V | 1E4
CCCCCCCCCCCCCCc1ccc2c(c1)N=c1c(c3c(n1C(=O)OC(C)(C)C)=Nc1cc(CCCCCCCCCCCCCC)ccc1S3)S2 [Compound 1e] | typical p-type characteristics | 0.23 cm^2/Vs | −3.9 V | 2E6
CCCCCC1CCC(c2ccc3c(c2)N=c2c(c4c(n2C(=O)OC(C)(C)C)=Nc2cc(C5CCC(CCCCC)CC5)ccc2S4)S3)CC1 (stereo not drawn) [Compound 1g] | typical p-type characteristics | 0.008 cm^2/Vs | −6.5 V | 4E4
